Data: PMC7819943, “Rice protein-binding microarrays: a tool to detect cis-acting elements near promoter regions in rice”
This is one part of the list.

The chains behind the UniProt entries cited, without tags or fusion partners.
UniProt Q0JBA9, entry or part of it: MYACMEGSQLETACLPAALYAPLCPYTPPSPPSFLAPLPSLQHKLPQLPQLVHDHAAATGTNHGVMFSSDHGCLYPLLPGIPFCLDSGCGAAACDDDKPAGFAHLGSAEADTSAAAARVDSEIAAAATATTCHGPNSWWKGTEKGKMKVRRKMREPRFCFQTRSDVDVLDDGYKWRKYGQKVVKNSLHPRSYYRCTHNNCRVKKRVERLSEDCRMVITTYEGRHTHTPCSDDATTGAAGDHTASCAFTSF

The sequences below were run against OsWRKY34 (Oryza sativa, UniProt Q0JBA9 1-250) (assay: protein-binding microarray (RPBM); PBS, 2% BSA, 51.3 ng/ul salmon testes DNA, 50 uM zinc acetate, 200 nM TF, 25 C, 1 h; high values mean tight binding). Conditions: protein: recombinant; tags: N-terminal polyhistidine and DsRed monomer fusion (pET32a); label: CyDye5-dUTP incorporated in the synthesized complementary strand; 3' TTTTT single-stranded linker to array surface; dsDNA, one strand shown.
In short: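 Binding signal here means per-feature fluorescence intensity in arbitrary units. The values were read on an Axon 4000B scanner after a custom Agilent array, double-stranded by primer extension with Cy5-dUTP, was incubated with 200 nM protein at 25 °C for 1 h in PBS with 2% BSA, salmon testes DNA and 50 µM zinc acetate, then washed. The proteins were transcription factors with an N-terminal polyhistidine tag and DsRed, expressed in E. coli BL21-CodonPlus and purified on Ni–NTA.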

Sequence | binding signal
TAAGATAAACGGTCAAACATTTGCTAAAAAGTCAACGGTGCGGAGTCACCTAGTGCAG | 17300 fluorescence intensity (a.u.)
GAAACGGAGGTGGTTGTTGTATTTAGTTAGTTCGCTACATCGGAGTCACCTAGTGCAG | 9760 fluorescence intensity (a.u.)
TATTGTGTTTACTGGCTACAATGTTACCTATAGCTGCGATCGGAGTCACCTAGTGCAG | 8140 fluorescence intensity (a.u.)
CACAGATCCACTCCATTGCTTCACTACTGCTTTGCTTTTGCGGAGTCACCTAGTGCAG | 11000 fluorescence intensity (a.u.)
ATGGTTATTTTTTATCGACGAGTAGGCCTACTTGTTCTGACGGAGTCACCTAGTGCAG | 8550 fluorescence intensity (a.u.)
GGCCGGAGGAGGATATGTTGGGTCATGGTTTTGGCACGCTCGGAGTCACCTAGTGCAG | 9370 fluorescence intensity (a.u.)
TAAATTCTGCCTGTTCTTTTTCAGATCTGCGCTCCGTGCTCGGAGTCACCTAGTGCAG | 10300 fluorescence intensity (a.u.)
AACCCACAATTACGCGGCGGTGCATTCTCGTTGCTTTGACCGGAGTCACCTAGTGCAG | 11400 fluorescence intensity (a.u.)
CGTTCGATCATCACCTCGTTTCTTGCTGAGATTATAGCCACGGAGTCACCTAGTGCAG | 8410 fluorescence intensity (a.u.)
AACCTGTCATACACACACAACTTTTCAGTCACATCATCTCCGGAGTCACCTAGTGCAG | 8510 fluorescence intensity (a.u.)
TAGTCAACGGATCACGAGAGATGTTCCCAGCCCTGTATTTCGGAGTCACCTAGTGCAG | 8040 fluorescence intensity (a.u.)
AACTTGTTCTTGGCACACAGACACCAATACTCACATGCAACGGAGTCACCTAGTGCAG | 9180 fluorescence intensity (a.u.)
GCTTAGTTACTCCTTATTTTTCGTTGGCACATTTTTCAAACGGAGTCACCTAGTGCAG | 9760 fluorescence intensity (a.u.)
ATTTAACAAAACCAAAGCTTTTTTCCTTTTCTCTTGGATGCGGAGTCACCTAGTGCAG | 8030 fluorescence intensity (a.u.)
TGTATTTTTCCTGTGGTTTTCCAATCCTATGTTTTTCATACGGAGTCACCTAGTGCAG | 12400 fluorescence intensity (a.u.)
TTCGAACATTTTATAGCCGTTACACTCCCAATCTCCTCGTCGGAGTCACCTAGTGCAG | 8960 fluorescence intensity (a.u.)
AAAGCTTACTACTGGTACTACTATTCTTGTACTCATATGTCGGAGTCACCTAGTGCAG | 8820 fluorescence intensity (a.u.)
ATCTTCATCCTCAGTTTTTGCCCATTCTGAAACACGACTTCGGAGTCACCTAGTGCAG | 8630 fluorescence intensity (a.u.)
ATCTCGCACCAACAAGTCCGCCGTCCGCGCGTCGTCAAATCGGAGTCACCTAGTGCAG | 9880 fluorescence intensity (a.u.)
TGTTGAATGATATATCACATGCATATTTATTCTTTTTCTTCGGAGTCACCTAGTGCAG | 9050 fluorescence intensity (a.u.)
CGCCCCTCCTGCCACCCGCTGCGGCAAGCGCTTTTTTGACCGGAGTCACCTAGTGCAG | 8740 fluorescence intensity (a.u.)

Looked up above:
binding signal, ATCTTCATCCTCAGTTTTTGCCCATTCTGAAACACGACTTCGGAGTCACCTAGTGCAG reads 8630 fluorescence intensity (a.u.)
binding signal, AACCTGTCATACACACACAACTTTTCAGTCACATCATCTCCGGAGTCACCTAGTGCAG reads 8510 fluorescence intensity (a.u.)
binding signal, TGTTGAATGATATATCACATGCATATTTATTCTTTTTCTTCGGAGTCACCTAGTGCAG reads 9050 fluorescence intensity (a.u.)

Further records.

Sequence | binding signal
GGCGCGTATTTTTCGTTTGGGCACGTATTTTTCGTTCTTTCGGAGTCACCTAGTGCAG | 9540 fluorescence intensity (a.u.)
TCCCAACCCCATCCGCCTTGTTTTCCACGCGCACGCTTCCCGGAGTCACCTAGTGCAG | 9510 fluorescence intensity (a.u.)
ACAAATCGGTCATTCTTGTCCACCACGCGTCAGTTTATCACGGAGTCACCTAGTGCAG | 10300 fluorescence intensity (a.u.)
CCGTCAACTGTATTGGGTCAACGAAACGGTGGTTGGACCGCGGAGTCACCTAGTGCAG | 10400 fluorescence intensity (a.u.)
GTGTGGTGTTACGTGCGTAGTGGTGTGTATATATATCTGTCGGAGTCACCTAGTGCAG | 9000 fluorescence intensity (a.u.)
AGTAACTCTACAACCACTTCGCGCACTAATTATCTCTTTCCGGAGTCACCTAGTGCAG | 8680 fluorescence intensity (a.u.)
CCCTCCCTCGCTTGACTTCTCTCTCCGCGTCACTTCTCTTCGGAGTCACCTAGTGCAG | 12800 fluorescence intensity (a.u.)
TTACTTTTTAGGGTTTGTGTTTTTGCCCTTACTTTTTTCACGGAGTCACCTAGTGCAG | 14200 fluorescence intensity (a.u.)
CTCTGAGTCTGTCTCGCTCTCTGACCCCGCACTGCAATCCCGGAGTCACCTAGTGCAG | 8560 fluorescence intensity (a.u.)
GTAGTTAGCTATACCACTCCGTTAAGCTTGCTCTAAGACTCGGAGTCACCTAGTGCAG | 8310 fluorescence intensity (a.u.)
TGCCAACGTTTGACTGTCCGTCTTATATGAAATTTTTTTACGGAGTCACCTAGTGCAG | 8140 fluorescence intensity (a.u.)
GTTTTGACCACCGGTGACCTCCCAGCTATAACCAACCCAACGGAGTCACCTAGTGCAG | 10200 fluorescence intensity (a.u.)
GCTGCGCTCACCTACCGCCGCTCGGCTACTGCGCGGACCACGGAGTCACCTAGTGCAG | 8180 fluorescence intensity (a.u.)
CTCGTTGACAGCCCTACTGCCTGCCTATGTGAATTTCCATCGGAGTCACCTAGTGCAG | 8310 fluorescence intensity (a.u.)
CCCTTAAGGTAGATCATCACCACTCTCCATCATCTCATCACGGAGTCACCTAGTGCAG | 8520 fluorescence intensity (a.u.)
TTTCGTTACTGTTCCCCATTGGTTTTTGTCATTTTGCTGTCGGAGTCACCTAGTGCAG | 10200 fluorescence intensity (a.u.)
TGTGGATTTGTGGTGCCATGGCTTTTTCGGCTGTCAACACCGGAGTCACCTAGTGCAG | 8800 fluorescence intensity (a.u.)
CTCGCGCGCCTCTCGCTTGGTTTTTGGTAGTGACCTCTCGCGGAGTCACCTAGTGCAG | 9080 fluorescence intensity (a.u.)
GGGGCTTGTATTTATACCCATAGGTGTCCCCTTGTCCAAGCGGAGTCACCTAGTGCAG | 9840 fluorescence intensity (a.u.)
TTATTTCGTGGTCCCATAATGCTCACACATTACTCATAATCGGAGTCACCTAGTGCAG | 8950 fluorescence intensity (a.u.)
CGATTCCCGATGCTCGCGAAGTTTCTTTTCTCCGTTTCTCCGGAGTCACCTAGTGCAG | 9110 fluorescence intensity (a.u.)
